Construct, isoform or probe ends are uncertain for at least one entry. Where cells or extracts were used, other partners may take part.

We go through 1 sequence from PMC6325109, “The transcription factor STAT5 catalyzes Mannich ligation reactions yielding inhibitors of leukemic cell proliferation” (Nature Communications, 2019).

This data set relates to STAT5 dimer (STAT5a/STAT5b not distinguished in EMSA). Kind of data set: EMSA. The settings on record: without inhibitor, compound 10 inhibits the complex; EMSA: Active Motif Gelshift Chemiluminescent kit, salt and pH not stated; protein in an extract. (Mobility shift assays separate free from complexed probe on a gel.)

With “AGATTTCTAGGAATTCAATCC (double strand) [STAT5 consensus EMSA probe]”, the binding result is given as “binds”.
